The list does not hold the whole screen: it is rich in T/C values a quarter to a half above the control, in often repeated tests (any T/C) and in doses without a T/C. Further doses and runs are listed elsewhere. T/C: endpoint of the treated group in % of that of the vehicle group. Some doses have a count of surviving animals in place of a T/C: the source holds a T/C of zero for them, seemingly a mark for toxic or unscored doses. Some doses without a T/C left all or most animals alive at the check, yet need not have been tolerated: survival well below the control is almost never listed, so the zero probably covers shortened survival too. Counts of survivors are from the toxicity check (mostly the fifth day) where no day follows; animals may have died later. Schedules are NCI's codes, taken here to give the interval after Q, in days (D) or hours (H), and the number of doses after X. Some doses were run more than once; their values stand side by side, smallest first. Where survival is the endpoint, the PubChem record calls one and a half times the control and up active, and a quarter to a half above the control has no call in these data; cut-offs in other NCI protocols can differ.

In PubChem BioAssay AID280 (DTP/NCI, 2004) one finds T/C and survivor count data, which are given here for 18 compounds.

This test relates to nude mice, LOX melanoma ip, survival T/C. Put plainly: NCI In Vivo Anticancer Drug Screen. Data for tumor model Human Amelanotic Melanoma (LOX) (intraperitoneal) in NU/NU BALB/C (nude) mice. To be noted: T/C endpoint: median survival time, higher T/C = longer survival. On the procedure: The antitumor activity of compounds was measured in mice bearing transplantable tumors. Survival or tumor size were measured and the results are expressed as the measurement made in the treated group (T) divided by the measurement made in the vehicle treated control group (C). The tumor model used in this assay is Human Amelanotic Melanoma (LOX) (intraperitoneal) in NU/NU BALB/C (nude) mice

The mark [1] stands for this setting: dose: 100.0 mg/kg/injection, schedule: Q04DX003 (ip), vehicle: water.
[2] abbreviates: dose: 25.0 mg/kg/injection, schedule: Q04DX003 (ip), vehicle: Klucel (hydroxypropylcellulose) (HPC).
Setting [3] is: dose: 100.0 mg/kg/injection, schedule: Q04DX003 (ip), vehicle: Klucel (hydroxypropylcellulose) (HPC).
Setting [4] is: dose: 200.0 mg/kg/injection, schedule: Q04DX003 (ip), vehicle: Klucel (hydroxypropylcellulose) (HPC).
Setting [5] is: dose: 400.0 mg/kg/injection, schedule: Q04DX003 (ip), vehicle: Klucel (hydroxypropylcellulose) (HPC).
Where [6] appears, read: dose: 400.0 mg/kg/injection, schedule: Q04DX003 (ip), vehicle: saline with Tween-80.

As for `COC(=O)NC1C(C)OC(OC2C/C=C(/C)C3C=CC4C(OC5CC(OC6CC(OC7CC(O)C(O)C(C)O7)C(OC7CC(O)C(OC)C(C)O7)C(C)O6)C(O)C(C)O5)C(C)CC(C)C4C3(C)/C(O)=C3\C(=O)OC4(CC(C)C(CO)=CC4/C=C\2C)C3=O)CC1(C)[N+](=O)[O-]` (configuration not stated), the T/C (dose: 37.5 mg/kg/injection, schedule: Q04DX003 (ip), vehicle: water) is 125 % of control. The survivor count is reported as 1 of 6 on day 10 (dose: 300.0 mg/kg/injection, schedule: Q04DX003 (ip), vehicle: water) and 0 of 6 on day 10 (dose: 600.0 mg/kg/injection, schedule: Q04DX003 (ip), vehicle: water).

As to `O=C1C2=C(C(=O)c3ncccc31)C1C=CC2CC1` (configuration not stated), the T/C (dose: 12.5 mg/kg/injection, schedule: Q04DX003 (ip), vehicle: DMSO) was 127 % of control.

For `COc1ccc2c(c1)-c1nn(CCCN(C)C)c3ccc([N+](=O)[O-])c(c13)N2`, the T/C is 127 % of control (dose: 29.7 mg/kg/injection, schedule: Q04DX003 (ip), vehicle: water); 129 % of control (dose: 29.7 mg/kg/injection, schedule: Q04HX006 (ip), vehicle: water); 132 % of control (dose: 66.7 mg/kg/injection, schedule: Q04DX003 (ip), vehicle: water); 125 % of control under setting [1]. The survivor count runs as follows: (dose: 66.7 mg/kg/injection, schedule: Q04HX006 (ip), vehicle: water) 5 of 6 on day 10; under setting [1], 1 of 6 on day 10 and 6 of 6 on day 10; (dose: 166.66 mg/kg/injection, schedule: Q04DX003 (ip), vehicle: water) 0 of 6 on day 10 and 2 of 6 on day 10.

`CC1(C)Nc2cc3c(cc2-n2cccc21)oc1ccccc13`: the survivor count (dose: 600.0 mg/kg/injection, schedule: Q04DX003 (ip), vehicle: DMSO) is given as 6 of 6 on day 10.

With `COc1ccc2oc(-c3ccc(Cl)cc3)c(N3CCN(C)CC3)c2c1`, the T/C (dose: 37.5 mg/kg/injection, schedule: Q04DX003 (ip), vehicle: saline) was 139 % of control. In addition, the survivor count (dose: 600.0 mg/kg/injection, schedule: Q04DX003 (ip), vehicle: saline) is recorded as 2 of 6 on day 10.

Regarding `COc1cccc2c1C(=O)c1c(O)c3c(c(O)c1C2=O)C[C@@](O)(C(=O)CO)C[C@@H]3OC1CC(N)C(O)C(C)O1` (some centres not stated), the T/C runs as follows: (dose: 0.5 mg/kg/injection, schedule: Q01DX005 (ip), vehicle: water) 139 % of control; (dose: 2.0 mg/kg/injection, schedule: Q01DX005 (ip), vehicle: water) 149 % of control; (dose: 2.0 mg/kg/injection, schedule: Q04DX003 (ip), vehicle: saline) 126 % of control; (dose: 2.0 mg/kg/injection, schedule: Q04DX003 (iv), vehicle: saline) 137 % of control; (dose: 8.0 mg/kg/injection, schedule: Q01DX001 (ip), vehicle: water) 127 % of control. The survivor count is on record as 6 of 6 on day 10 (dose: 2.0 mg/kg/injection, schedule: Q01DX015 (ip), vehicle: water); 1 of 6 on day 10 (dose: 4.0 mg/kg/injection, schedule: Q01DX005 (ip), vehicle: water); 0 of 6 on day 10 (dose: 4.0 mg/kg/injection, schedule: Q01DX015 (ip), vehicle: water); 0 of 6 on day 10 (dose: 8.0 mg/kg/injection, schedule: Q01DX005 (ip), vehicle: water); 4 of 6 on day 10 (dose: 8.0 mg/kg/injection, schedule: Q04DX003 (ip), vehicle: water); 2 of 6 on day 10 (dose: 16.0 mg/kg/injection, schedule: Q01DX001 (ip), vehicle: water). The survivor count is, setting by setting: (dose: 16.0 mg/kg/injection, schedule: Q04DX003 (ip), vehicle: water) 0 of 6 on day 10; (dose: 16.0 mg/kg/injection, schedule: Q04DX003 (iv), vehicle: saline) 2 of 6 on day 10; (dose: 32.0 mg/kg/injection, schedule: Q01DX001 (ip), vehicle: water) 2 of 6 on day 10.

Regarding `O=C1c2ccccc2C(=O)c2c1cn1c2Cc2ccccc2C1`, the survivor count was 3 of 6 on day 10 (dose: 12.5 mg/kg/injection, schedule: Q04DX003 (ip), vehicle: Klucel (hydroxypropylcellulose) (HPC)); 6 of 6 on day 10 under setting [2]; 6 of 6 on day 10 under setting [3]; 6 of 6 on day 10 under setting [4]; 6 of 6 on day 10 under setting [5].

`C=C(c1ccc(OC)c(OC)c1)c1nccc2cc(OC)c(OC)cc12`: the survivor count runs as follows: (dose: 600.0 mg/kg/injection, schedule: Q04DX003 (ip), vehicle: Klucel (hydroxypropylcellulose) (HPC)) 3 of 6 on day 10; (dose: 1200.0 mg/kg/injection, schedule: Q04DX003 (ip), vehicle: Klucel (hydroxypropylcellulose) (HPC)) 1 of 6 on day 10.

Turning to `CC1(O)C=CC(=O)C=C1`, the survivor count under setting [1] is 1 of 6 on day 10.

On to `CN=C(N)N/N=C(\C)c1ccc2oc3ccc(/C(C)=N/NC(N)=NC)cc3c2c1`, for which the T/C under setting [2] was 130 % of control. The survivor count is listed as 2 of 6 on day 10 (dose: 138.89 mg/kg/injection, schedule: Q04DX003 (ip), vehicle: Klucel (hydroxypropylcellulose) (HPC)); 1 of 6 on day 10 (dose: 139.0 mg/kg/injection, schedule: Q04DX003 (ip), vehicle: Klucel (hydroxypropylcellulose) (HPC)); 0 of 6 on day 10 under setting [4]; 1 of 6 on day 10 under setting [5].

Take `COc1ccc(O)cc1`: the survivor count under setting [6] is 5 of 6 on day 10 and the survivor count (dose: 800.0 mg/kg/injection, schedule: Q04DX003 (ip), vehicle: saline with Tween-80) is reported as 0 of 6 on day 10.

On to `O=C(CCCN1CCC(C(O)c2ccc(F)cc2)CC1)c1ccc(F)cc1` (configuration not stated), for which the survivor count by setting is: (dose: 100.0 mg/kg/injection, schedule: Q01DX009 (ip), vehicle: saline with Tween-80) 3 of 6 on day 10; (dose: 200.0 mg/kg/injection, schedule: Q01DX009 (oral), vehicle: saline with Tween-80) 4 of 6 on day 10.

`O=C1C2=C(Nc3cc([N+](=O)[O-])ccc3N2)OC1c1ccccn1` (configuration not stated): under setting [5], the T/C is 138 % of control.

In the case of `Nc1ccc2ccc(NS(=O)(=O)N3CCCCC3)cc2c1`, the T/C (dose: 75.0 mg/kg/injection, schedule: Q04DX003 (ip), vehicle: saline with Tween-80) was 144 % of control and the T/C (dose: 150.0 mg/kg/injection, schedule: Q04DX003 (ip), vehicle: saline with Tween-80) was 125 % of control. For the same compound, the survivor count (dose: 1200.0 mg/kg/injection, schedule: Q04DX003 (ip), vehicle: saline with Tween-80) is given as 0 of 6 on day 10.

For `CCC(=O)Sc1ccccc1C(=O)Nc1ccc(Cl)cc1`, the survivor count under setting [6] is 3 of 6 on day 10.

Regarding `CCCCCC1c2cc(O)ccc2OC1N1CCOCC1` (configuration not stated), the survivor count is 6 of 6 on day 10 (dose: 100.0 mg/kg/injection, schedule: Q04DX003 (ip), vehicle: saline with Tween-80) and 5 of 6 on day 10 under setting [6].

For `CCCCCNc1ncnc2c(C)[nH]nc12`, for the setting “dose: 300.0 mg/kg/injection, schedule: Q04DX003 (ip), vehicle: Klucel (hydroxypropylcellulose) (HPC)”, the survivor count is on record as 2 of 6 on day 10.

Take `CCOC(=O)Nc1cc(NC(C)/C(=N/O)c2ccccc2)c([N+](=O)[O-])c(N)n1` (configuration not stated): the survivor count is, setting by setting: under setting [3], 3 of 6 on day 10; under setting [4], 3 of 6 on day 10; under setting [5], 1 of 6 on day 10 and 3 of 6 on day 10; (dose: 800.0 mg/kg/injection, schedule: Q04DX003 (ip), vehicle: Klucel (hydroxypropylcellulose) (HPC)) 2 of 6 on day 10.
